# Data source: PubChem BioAssay AID1259425 (University of Nebraska Medical Center, 2018)
# Purpose: 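Compare each knockdown with KSR1 silencing using changes in marker transcripts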 (primary screen)
# System: HCT116 human colon cancer cells
# Reagents: siRNA pool against human genes, 50 nM siRNA
# Read-out: 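mRNA of six signature genes measured together by branched-DNA assay after 50 nM siRNA pool, blank removed, divided by geometric mean of two housekeeping genes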
# Reading the numbers: BNIP3L mRNA: higher = more BNIP3L transcript after knockdown; NDRG1 mRNA: higher = more NDRG1 transcript after knockdown; BNIP3 mRNA: higher = more BNIP3 transcript after knockdown; ALDOC mRNA: higher = more ALDOC transcript after knockdown; ACSL5 mRNA: higher = more ACSL5 transcript after knockdown
# Here is a random part of about 14,000 deposited reagents. Reagent sequences are not shown. Not stated in the record: the time to read-out.
Gene,"BNIP3L mRNA, set 1","NDRG1 mRNA, set 1","BNIP3 mRNA, set 1","ALDOC mRNA, set 1","ACSL5 mRNA, set 1"
DNASE2,0.211,0.137,0.297,0.0248,0.103
GOLGA7,0.117,0.236,0.392,0.0418,0.158
HOXB5,0.0953,0.0274,0.245,0.0193,0.178
LMO4,0.0506,0.0636,0.211,0.00377,0.107
UPK3B,0.0329,0.274,0.242,0.014,0.19
FOXH1,0.091,0.102,0.361,0.0145,0.169
CHRFAM7A,0.115,0.219,0.258,0.0272,0.0847
CDH3,0.0967,0.207,0.199,0.0249,0.193
ZNF426,0.0995,0.217,0.306,0.0341,0.244
EXTL2,0.0986,0.108,0.278,0.0219,0.0973
MOCOS,0.0574,0.09,0.237,0.0147,0.0943
CFAP43,0.08,0.189,0.442,0.00975,0.288
MYCBPAP,0.522,0.266,0.596,0.0933,0.418
SIN3B,0.065,0.708,0.282,0.00781,0.222
KRT4,0.0896,0.152,0.308,0.0278,0.0928
CDC27,0.0925,0.0675,0.229,0.0149,0.0955
CRYBA4,0.114,0.0547,0.392,0.00961,0.0674
LY6G5B,0.136,0.116,0.123,0.0201,0.26
PPP6R2,0.125,0.175,0.309,0.04,0.116
IL18R1,0.0834,0.129,0.299,0.0215,0.167

Already shown: an excerpt of the list.
Gene,"BNIP3L mRNA, set 1","NDRG1 mRNA, set 1","BNIP3 mRNA, set 1","ALDOC mRNA, set 1","ACSL5 mRNA, set 1"
CHRFAM7A,0.115,0.219,0.258,0.0272,0.0847
CDH3,0.0967,0.207,0.199,0.0249,0.193
